In the supplement of paper PMC10849652:
The list shows a part of the results. Residues, ends and D or L forms follow the SMILES beside them. *: point of attachment. Cbz = O=C(OCc1ccccc1)*

Amino acid sequences for entries named in this document (tags omitted). A change or cut given only in a name is not applied to a line headed by its entry.
UniProt Q99943: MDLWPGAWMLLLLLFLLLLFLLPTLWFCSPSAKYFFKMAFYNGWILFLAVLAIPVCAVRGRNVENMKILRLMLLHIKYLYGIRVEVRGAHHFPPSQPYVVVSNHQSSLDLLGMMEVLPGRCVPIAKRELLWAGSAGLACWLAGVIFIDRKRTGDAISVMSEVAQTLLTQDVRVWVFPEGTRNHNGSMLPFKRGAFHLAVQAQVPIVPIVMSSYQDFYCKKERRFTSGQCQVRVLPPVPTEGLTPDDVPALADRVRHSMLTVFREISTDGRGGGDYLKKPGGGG
UniProt P13716: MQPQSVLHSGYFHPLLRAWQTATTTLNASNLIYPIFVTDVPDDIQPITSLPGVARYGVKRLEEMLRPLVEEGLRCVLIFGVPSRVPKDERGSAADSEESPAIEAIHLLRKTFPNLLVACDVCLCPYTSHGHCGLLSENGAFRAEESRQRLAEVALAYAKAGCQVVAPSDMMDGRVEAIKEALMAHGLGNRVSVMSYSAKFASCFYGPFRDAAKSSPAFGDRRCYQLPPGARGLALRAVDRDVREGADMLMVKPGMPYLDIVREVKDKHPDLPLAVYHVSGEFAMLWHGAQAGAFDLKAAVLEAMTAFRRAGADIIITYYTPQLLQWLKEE
UniProt P52895: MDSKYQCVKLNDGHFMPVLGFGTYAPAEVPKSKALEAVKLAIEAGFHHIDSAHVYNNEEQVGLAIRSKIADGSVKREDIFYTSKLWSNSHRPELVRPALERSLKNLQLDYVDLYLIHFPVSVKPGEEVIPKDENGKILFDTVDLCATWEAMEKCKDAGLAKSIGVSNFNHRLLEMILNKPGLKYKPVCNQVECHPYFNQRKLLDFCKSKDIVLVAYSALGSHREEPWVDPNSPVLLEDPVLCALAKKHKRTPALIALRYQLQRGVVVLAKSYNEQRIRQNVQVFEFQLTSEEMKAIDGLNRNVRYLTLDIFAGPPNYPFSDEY
UniProt O95433, whole entry, looked up: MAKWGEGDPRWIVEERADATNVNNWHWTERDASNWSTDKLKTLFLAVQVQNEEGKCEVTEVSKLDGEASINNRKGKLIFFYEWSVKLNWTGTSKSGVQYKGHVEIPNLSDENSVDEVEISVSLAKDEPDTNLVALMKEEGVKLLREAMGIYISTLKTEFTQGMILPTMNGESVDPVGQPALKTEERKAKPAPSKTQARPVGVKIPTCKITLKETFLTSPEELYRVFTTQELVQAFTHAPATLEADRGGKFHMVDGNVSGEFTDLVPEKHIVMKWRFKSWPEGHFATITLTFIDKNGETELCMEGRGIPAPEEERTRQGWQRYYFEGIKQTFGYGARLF
UniProt Q9Y673: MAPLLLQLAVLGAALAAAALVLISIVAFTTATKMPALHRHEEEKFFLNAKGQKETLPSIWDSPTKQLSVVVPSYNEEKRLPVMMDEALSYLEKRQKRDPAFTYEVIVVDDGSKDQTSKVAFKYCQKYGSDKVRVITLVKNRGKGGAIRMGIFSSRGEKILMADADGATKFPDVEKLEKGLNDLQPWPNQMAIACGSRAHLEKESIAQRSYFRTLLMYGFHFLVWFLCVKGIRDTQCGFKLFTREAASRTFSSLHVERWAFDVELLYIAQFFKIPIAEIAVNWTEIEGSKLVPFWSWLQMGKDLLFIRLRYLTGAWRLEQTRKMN
UniProt P17707: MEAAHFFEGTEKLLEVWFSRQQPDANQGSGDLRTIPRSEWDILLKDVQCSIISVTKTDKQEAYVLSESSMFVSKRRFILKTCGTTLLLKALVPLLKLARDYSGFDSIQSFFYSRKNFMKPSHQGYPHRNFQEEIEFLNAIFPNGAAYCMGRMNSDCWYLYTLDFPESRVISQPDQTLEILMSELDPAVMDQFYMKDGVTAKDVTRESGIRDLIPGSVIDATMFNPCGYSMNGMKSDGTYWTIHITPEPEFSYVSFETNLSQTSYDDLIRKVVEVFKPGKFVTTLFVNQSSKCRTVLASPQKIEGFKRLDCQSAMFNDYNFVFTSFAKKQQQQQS
UniProt P31751: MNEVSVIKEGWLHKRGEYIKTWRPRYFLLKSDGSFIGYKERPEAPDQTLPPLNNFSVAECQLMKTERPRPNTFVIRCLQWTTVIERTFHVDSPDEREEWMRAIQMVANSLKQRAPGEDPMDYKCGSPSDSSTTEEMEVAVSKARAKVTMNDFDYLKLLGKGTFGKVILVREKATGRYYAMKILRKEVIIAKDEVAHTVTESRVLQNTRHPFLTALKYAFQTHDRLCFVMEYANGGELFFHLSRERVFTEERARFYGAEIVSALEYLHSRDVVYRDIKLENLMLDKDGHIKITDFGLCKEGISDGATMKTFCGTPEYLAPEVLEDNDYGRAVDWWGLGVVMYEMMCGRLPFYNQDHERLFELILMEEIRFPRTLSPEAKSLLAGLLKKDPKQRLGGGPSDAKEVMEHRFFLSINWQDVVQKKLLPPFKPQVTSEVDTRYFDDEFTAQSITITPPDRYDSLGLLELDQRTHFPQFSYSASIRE
UniProt P11766: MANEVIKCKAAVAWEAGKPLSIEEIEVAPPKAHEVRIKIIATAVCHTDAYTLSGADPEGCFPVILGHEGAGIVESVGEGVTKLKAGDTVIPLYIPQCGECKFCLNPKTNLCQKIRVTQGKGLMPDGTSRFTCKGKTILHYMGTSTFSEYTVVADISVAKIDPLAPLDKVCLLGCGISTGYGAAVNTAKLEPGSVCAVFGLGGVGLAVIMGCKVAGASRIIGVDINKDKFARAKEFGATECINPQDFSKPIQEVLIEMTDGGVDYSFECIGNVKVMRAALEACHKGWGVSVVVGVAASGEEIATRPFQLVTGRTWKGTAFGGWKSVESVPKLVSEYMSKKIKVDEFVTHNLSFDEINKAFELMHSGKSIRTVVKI

Columns and labels:
Test in all cases: log2 fold change, soluble protein after heating vs DMSO (PISA); higher = thermal stabilisation; K562 cells, 10 uM, 30 min; active = over 0.2 and 3.5 SD of the protein, either way, in both replicates (recomputed)
IRAK-1-4 Inhibitor I = compound: C1COCCN1CCN2C3=CC=CC=C3N=C2NC(=O)C4=CC(=CC=C4)[N+](=O)[O-] [IRAK-1-4 Inhibitor I]
Method in brief: (§1)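 For each measurement, 10 μM compound was applied for 30 min to K562 cells at 2×10^6 cells/mL. Aliquots were heated for 3 min across 48°C-58°C, pooled, and extracted in PBS with 0.5% NP-40 at 4°C; the supernatant after 21,000xg for 90 min was soluble protein. This was quantified by TMTpro 16plex LC-MS/MS with channel sums equalised, and thermal stability was reported relative to control samples from duplicates, on a log2 fold-change scale.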

ibrutinib = compound: C=CC(=O)N1CCC[C@@H](n2nc(-c3ccc(Oc4ccccc4)cc3)c3c(N)ncnc32)C1 [ibrutinib]
Method in brief: as §1

[1] = compound: CC(=O)c1cnc2ccc(-c3cc(Cl)c(O)c(Cl)c3)nc2c1N[C@H]1CC[C@H](CN(C)C)CC1
Method in brief: as §1

ralimetinib = compound: CC(C)(C)Cn1c(N)nc2ccc(-c3[nH]c(C(C)(C)C)nc3-c3ccc(F)cc3)nc21 [ralimetinib]
Method in brief: as §1

[2] = compound: CC(C)(O)CC(=O)NCCn1ccc2ncnc(Nc3ccc(Oc4cccc(C(F)(F)F)c4)c(Cl)c3)c21
Method in brief: as §1

[3] = compound: CC(C)C1=C2N=C(C=C(N2N=C1)NCC3=CC=CC=C3)NCCCCCCN
Method in brief: as §1

[4] = compound: CC(C)C[C@@H](C=O)NC(=O)[C@H](CC(C)C)NC(=O)[C@H](CC(C)C)NC(=O)OCc1ccccc1
Method in brief: as §1

pinometostat = compound: CC(C)N(C[C@H]1O[C@@H](n2cnc3c(N)ncnc32)[C@H](O)[C@@H]1O)[C@H]1C[C@@H](CCc2nc3cc(C(C)(C)C)ccc3[nH]2)C1 [pinometostat]
Method in brief: as §1

[5] = compound: CC1=C(C2=C(C=C1)C(=O)C3=CC=CC=C3N2CCCN)C
Method in brief: as §1

[6] = compound: CC1=C(C=C(C=C1)NC(=O)C2=CC(=CC=C2)C(C)(C)C#N)NC3=CC4=C(C=C3)N=CN(C4=O)C
Method in brief: as §1

[7] = compound: CC1=C(C=C(C=C1)NC(=O)C2=CC(=CC=C2)N(C)C)NC(=O)C3=CC=C(C=C3)O
Method in brief: as §1

[8] = compound: CC1=CC=C(C=C1)SC2=C3C=C(SC3=CN=C2)C(=O)N
Method in brief: as §1

[9] = compound: CC1=NC(=CC=C1)C2=C(N=C(N2)C(C)(C)C)C3=CC4=NC=CN=C4C=C3
Method in brief: as §1

Nexturastat A = compound: CCCCN(Cc1ccc(C(=O)NO)cc1)C(=O)Nc1ccccc1 [Nexturastat A]
Method in brief: as §1

vemurafenib = compound: CCCS(=O)(=O)Nc1ccc(F)c(C(=O)c2c[nH]c3ncc(-c4ccc(Cl)cc4)cc23)c1F [vemurafenib]
Method in brief: as §1

[10] = compound: CCCS(=O)(=O)Nc1ccc(F)c(C(=O)c2c[nH]c3ncc(Cl)cc23)c1F
Method in brief: as §1

[11] = compound: CCCc1cc(C)[nH]c(=O)c1CNC(=O)c1cc(-c2ccnc(N3CCN(C)CC3)c2)cc2c1cnn2C(C)C
Method in brief: as §1

givinostat = compound: CCN(CC)Cc1ccc2cc(COC(=O)Nc3ccc(C(=O)NO)cc3)ccc2c1 [givinostat]
Method in brief: as §1

barasertib = compound: CCN(CCCOc1ccc2c(Nc3cc(CC(=O)Nc4cccc(F)c4)[nH]n3)ncnc2c1)CCOP(=O)(O)O [barasertib]
Method in brief: as §1

[12] = compound: CC1=C(C(CC(=O)N1)C2=CC=C(C=C2)C(F)(F)F)C(=O)NC3=C(C=C4C(=C3)C=NN4)F
Method in brief: as §1

Row | Target | log2 fold change (IRAK-1-4 Inhibitor I) | log2 fold change (ibrutinib) | log2 fold change [1] | log2 fold change (ralimetinib) | log2 fold change [2] | log2 fold change [3] | log2 fold change [4] | log2 fold change (pinometostat) | log2 fold change [5] | log2 fold change [6] | log2 fold change [7] | log2 fold change [8] | log2 fold change [9] | log2 fold change (Nexturastat A) | log2 fold change (vemurafenib) | log2 fold change [10] | log2 fold change [11] | log2 fold change (givinostat) | log2 fold change (barasertib) | log2 fold change [12]
1 | AGPAT1 (UniProt Q99943) | inactive: 0 | inactive: -0.083 | inactive: -0.051 | inactive: 0.012 | inactive: -0.109 | inactive: 0.06 | inactive: -0.005 | inactive: 0.02 | inactive: -0.017 | inactive: -0.037 | inactive: -0.029 | inactive: -0.014 | inactive: -0.03 | inactive: -0.052 | inactive: 0.017 | inactive: -0.004 | inactive: 0.004 | inactive: 0.005 | inactive: 0.047 | 
2 | ALAD isoform 2 (UniProt P13716) | inactive: 0.009 | inactive: 0.027 | inactive: -0.032 | inactive: -0.003 | inactive: -0.022 | inactive: 0.089 | inactive: -0.001 | inactive: -0.027 | inactive: 0.019 | inactive: -0.08 | inactive: -0.022 | inactive: -0.013 | inactive: -0.015 | inactive: -0.058 | inactive: 0.084 | inactive: -0.04 | inactive: -0.065 | inactive: -0.037 | inactive: -0.081 | inactive: 0.003
3 | AKR1C2 (UniProt P52895) | inactive: -0.218 | inactive: 0.006 | inactive: -0.043 | inactive: -0.015 | inactive: 0.099 | inactive: -0.16 | inactive: -0.043 | inactive: 0.049 | inactive: -0.063 | inactive: -0.153 | inactive: -0.222 | inactive: -0.166 | inactive: -0.077 | inactive: 0.205 | inactive: -0.046 | inactive: -0.179 | inactive: 0.024 | inactive: 0.159 | inactive: -0.018 | 
4 | AHSA1 (UniProt O95433) | inactive: 0.002 | inactive: -0.043 | inactive: -0.007 | inactive: 0 | inactive: -0.022 | inactive: -0.038 | inactive: -0.008 | inactive: -0.045 | inactive: 0 | inactive: -0.014 | inactive: 0.006 | inactive: 0 | inactive: 0.062 | inactive: -0.019 | inactive: 0.029 | inactive: 0.036 | inactive: -0.024 | inactive: -0.015 | inactive: 0.027 | 
5 | ALG5 (UniProt Q9Y673) | inactive: 0.026 | inactive: -0.043 | active: -0.281 | inactive: 0.009 | inactive: -0.009 | inactive: -0.004 | inactive: 0 | inactive: -0.002 | inactive: 0.07 | inactive: 0.039 | inactive: 0.019 | inactive: -0.001 | inactive: 0.049 | inactive: -0.055 | inactive: 0.035 | inactive: 0.059 | inactive: 0.025 | inactive: 0.01 | inactive: 0.02 | 
6 | AMD1 (UniProt P17707) | inactive: -0.018 | inactive: -0.043 | inactive: -0.086 | active: -0.307 | inactive: -0.031 | inactive: -0.073 | inactive: 0.276 | inactive: -0.025 | inactive: 0.051 | inactive: 0.013 | inactive: -0.142 | inactive: 0.049 | inactive: 0.078 | inactive: -0.048 | inactive: -0.126 | inactive: 0.041 | inactive: -0.027 | inactive: 0.07 | inactive: 0.016 | 
7 | AKT2 (UniProt P31751) | inactive: -0.013 | inactive: -0.033 | inactive: -0.039 | inactive: -0.015 | inactive: -0.027 | inactive: -0.179 | inactive: 0 | inactive: -0.016 | inactive: -0.011 | inactive: 0.018 | inactive: 0.033 | inactive: 0.006 | inactive: 0.019 | inactive: 0.069 | inactive: -0.007 | inactive: 0.015 | inactive: -0.017 | inactive: 0.069 | inactive: 0.079 | 
8 | ADH5 (UniProt P11766) | inactive: 0.038 | inactive: 0.011 | inactive: 0.014 | inactive: -0.097 | inactive: -0.02 | inactive: 0.05 | inactive: -0.041 | inactive: -0.05 | inactive: 0.019 | inactive: 0.004 | inactive: 0.008 | inactive: 0.043 | inactive: 0.009 | inactive: -0.103 | inactive: -0.007 | inactive: 0.008 | inactive: -0.046 | inactive: -0.01 | inactive: -0.023 | 
